Experimental data from publication PMC10372682.

Experiments:
[1] = target: T1, PTPMT1 (as used in the coimmunoprecipitation with NERCLIN) (UniProt Q8WUK0); experiment: co-IP; coimmunoprecipitation of NERCLIN and PTPMT1, in both directions (SI Appendix, Fig. S4A)
T1 sequence: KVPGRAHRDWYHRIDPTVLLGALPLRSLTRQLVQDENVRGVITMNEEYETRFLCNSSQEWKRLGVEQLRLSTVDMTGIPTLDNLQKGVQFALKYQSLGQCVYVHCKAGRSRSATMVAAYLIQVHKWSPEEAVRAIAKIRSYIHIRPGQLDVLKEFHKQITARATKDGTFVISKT

[2] = target: NERCLIN (as used in the coimmunoprecipitation with PTPMT1) (human); experiment: as above

binding [1]: no binding
Molecule: NERCLIN (as used in the coimmunoprecipitation with PTPMT1) (human)

binding [2]: no binding
B1: PTPMT1 (as used in the coimmunoprecipitation with NERCLIN) (protein, UniProt Q8WUK0 28-201)
chain: T1 sequence

No constants are given. Whether binding was seen depends on the method and setting. Binding seen in cells or lysates may run through a third protein. One block for each molecule: values may come before it.
